Measured values reported in the supplement of paper PMC12819154, “High-throughput peptide-centric local stability assay extends protein–ligand identification to membrane proteins, tissues and bacteria” (Nature Structural & Molecular Biology, 2025).
Some of the results follow. Most entries show no effect beyond the scatter of the controls.

Chains of the proteins cited; added tags and fusions are not shown. Lines headed by an entry give the natural chain unless they say otherwise; changes in a name come on top.
UniProt Q7Z417: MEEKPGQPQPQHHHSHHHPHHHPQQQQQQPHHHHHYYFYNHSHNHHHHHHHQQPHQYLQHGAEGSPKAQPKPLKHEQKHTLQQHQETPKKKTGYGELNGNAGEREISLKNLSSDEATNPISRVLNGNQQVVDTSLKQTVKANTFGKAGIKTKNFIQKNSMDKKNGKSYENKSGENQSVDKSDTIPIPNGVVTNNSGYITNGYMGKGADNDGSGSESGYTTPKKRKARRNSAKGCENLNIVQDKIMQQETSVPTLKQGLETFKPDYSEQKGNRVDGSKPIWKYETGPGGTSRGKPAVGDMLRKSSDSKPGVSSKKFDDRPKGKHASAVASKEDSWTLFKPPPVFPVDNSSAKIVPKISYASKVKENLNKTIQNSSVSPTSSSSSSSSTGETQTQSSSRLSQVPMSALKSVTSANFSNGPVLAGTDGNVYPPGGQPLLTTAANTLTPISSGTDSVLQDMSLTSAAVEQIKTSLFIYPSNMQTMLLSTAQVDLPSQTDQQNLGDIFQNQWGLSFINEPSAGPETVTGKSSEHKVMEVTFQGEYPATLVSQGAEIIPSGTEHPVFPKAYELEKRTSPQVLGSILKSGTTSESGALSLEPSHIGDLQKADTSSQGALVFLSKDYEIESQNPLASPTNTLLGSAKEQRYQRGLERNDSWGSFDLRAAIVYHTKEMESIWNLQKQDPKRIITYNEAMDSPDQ
UniProt Q86SX6: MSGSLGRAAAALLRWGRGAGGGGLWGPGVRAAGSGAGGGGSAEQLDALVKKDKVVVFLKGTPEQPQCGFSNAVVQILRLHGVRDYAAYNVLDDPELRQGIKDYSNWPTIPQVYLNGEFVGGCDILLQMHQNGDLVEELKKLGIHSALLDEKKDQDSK
UniProt Q6ZR52: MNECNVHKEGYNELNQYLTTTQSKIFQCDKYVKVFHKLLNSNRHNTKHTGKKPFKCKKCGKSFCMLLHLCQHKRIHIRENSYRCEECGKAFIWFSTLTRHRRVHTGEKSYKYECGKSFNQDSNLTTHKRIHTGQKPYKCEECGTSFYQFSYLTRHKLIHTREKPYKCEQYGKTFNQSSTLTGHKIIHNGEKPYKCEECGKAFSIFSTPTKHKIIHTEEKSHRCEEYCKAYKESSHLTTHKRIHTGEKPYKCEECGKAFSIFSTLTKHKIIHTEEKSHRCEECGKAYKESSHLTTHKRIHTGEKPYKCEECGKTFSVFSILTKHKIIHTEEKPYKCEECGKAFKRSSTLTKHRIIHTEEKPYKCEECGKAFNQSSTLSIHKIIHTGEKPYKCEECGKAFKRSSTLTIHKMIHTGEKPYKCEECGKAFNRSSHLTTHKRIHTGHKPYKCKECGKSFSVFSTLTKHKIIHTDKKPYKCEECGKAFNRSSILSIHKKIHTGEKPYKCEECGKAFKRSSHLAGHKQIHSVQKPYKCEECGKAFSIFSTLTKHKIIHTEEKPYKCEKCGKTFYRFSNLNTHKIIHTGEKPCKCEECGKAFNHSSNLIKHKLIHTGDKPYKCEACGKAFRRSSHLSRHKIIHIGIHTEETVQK
UniProt Q6ZWB6: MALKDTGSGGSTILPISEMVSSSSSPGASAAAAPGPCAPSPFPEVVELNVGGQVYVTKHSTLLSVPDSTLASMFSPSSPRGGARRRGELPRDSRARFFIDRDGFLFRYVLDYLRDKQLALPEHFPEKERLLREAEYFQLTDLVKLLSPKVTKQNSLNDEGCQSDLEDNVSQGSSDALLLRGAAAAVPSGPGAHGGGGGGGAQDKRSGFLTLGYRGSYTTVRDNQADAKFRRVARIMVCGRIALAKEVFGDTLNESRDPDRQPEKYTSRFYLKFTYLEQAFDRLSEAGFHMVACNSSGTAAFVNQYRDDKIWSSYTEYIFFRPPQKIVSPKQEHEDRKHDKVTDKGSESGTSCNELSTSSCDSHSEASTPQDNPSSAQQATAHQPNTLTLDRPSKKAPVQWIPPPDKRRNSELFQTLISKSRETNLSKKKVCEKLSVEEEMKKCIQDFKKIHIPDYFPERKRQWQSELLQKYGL
UniProt Q6ZRV2: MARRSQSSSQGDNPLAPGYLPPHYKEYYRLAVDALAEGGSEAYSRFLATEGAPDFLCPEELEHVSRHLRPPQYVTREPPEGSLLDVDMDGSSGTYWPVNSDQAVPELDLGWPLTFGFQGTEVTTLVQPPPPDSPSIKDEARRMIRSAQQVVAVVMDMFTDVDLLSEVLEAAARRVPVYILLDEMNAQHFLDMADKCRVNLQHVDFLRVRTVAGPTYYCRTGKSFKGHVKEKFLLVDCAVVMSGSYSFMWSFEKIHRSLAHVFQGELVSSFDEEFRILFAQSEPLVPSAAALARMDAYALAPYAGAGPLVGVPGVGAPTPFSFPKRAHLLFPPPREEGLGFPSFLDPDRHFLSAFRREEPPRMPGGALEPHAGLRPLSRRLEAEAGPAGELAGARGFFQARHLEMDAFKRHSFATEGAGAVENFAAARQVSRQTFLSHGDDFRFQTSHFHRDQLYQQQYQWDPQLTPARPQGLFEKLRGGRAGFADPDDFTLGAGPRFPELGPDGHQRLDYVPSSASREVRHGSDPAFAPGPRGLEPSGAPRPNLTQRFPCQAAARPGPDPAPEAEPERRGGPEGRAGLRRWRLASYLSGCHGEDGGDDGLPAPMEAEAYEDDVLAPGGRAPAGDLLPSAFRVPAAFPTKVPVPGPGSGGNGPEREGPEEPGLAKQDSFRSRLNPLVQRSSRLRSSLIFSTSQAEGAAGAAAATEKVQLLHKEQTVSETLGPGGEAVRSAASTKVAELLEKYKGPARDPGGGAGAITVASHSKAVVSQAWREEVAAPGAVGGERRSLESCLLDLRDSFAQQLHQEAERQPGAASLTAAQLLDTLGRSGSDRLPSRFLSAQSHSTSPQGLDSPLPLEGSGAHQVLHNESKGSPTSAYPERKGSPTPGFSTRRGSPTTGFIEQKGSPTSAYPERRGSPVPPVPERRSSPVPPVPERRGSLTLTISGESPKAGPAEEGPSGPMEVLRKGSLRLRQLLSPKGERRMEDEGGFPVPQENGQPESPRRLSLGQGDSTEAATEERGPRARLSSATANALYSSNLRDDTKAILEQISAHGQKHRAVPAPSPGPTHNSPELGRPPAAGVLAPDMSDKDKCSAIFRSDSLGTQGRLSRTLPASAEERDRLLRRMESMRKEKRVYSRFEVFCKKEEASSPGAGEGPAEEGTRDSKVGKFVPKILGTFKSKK
UniProt Q76L83: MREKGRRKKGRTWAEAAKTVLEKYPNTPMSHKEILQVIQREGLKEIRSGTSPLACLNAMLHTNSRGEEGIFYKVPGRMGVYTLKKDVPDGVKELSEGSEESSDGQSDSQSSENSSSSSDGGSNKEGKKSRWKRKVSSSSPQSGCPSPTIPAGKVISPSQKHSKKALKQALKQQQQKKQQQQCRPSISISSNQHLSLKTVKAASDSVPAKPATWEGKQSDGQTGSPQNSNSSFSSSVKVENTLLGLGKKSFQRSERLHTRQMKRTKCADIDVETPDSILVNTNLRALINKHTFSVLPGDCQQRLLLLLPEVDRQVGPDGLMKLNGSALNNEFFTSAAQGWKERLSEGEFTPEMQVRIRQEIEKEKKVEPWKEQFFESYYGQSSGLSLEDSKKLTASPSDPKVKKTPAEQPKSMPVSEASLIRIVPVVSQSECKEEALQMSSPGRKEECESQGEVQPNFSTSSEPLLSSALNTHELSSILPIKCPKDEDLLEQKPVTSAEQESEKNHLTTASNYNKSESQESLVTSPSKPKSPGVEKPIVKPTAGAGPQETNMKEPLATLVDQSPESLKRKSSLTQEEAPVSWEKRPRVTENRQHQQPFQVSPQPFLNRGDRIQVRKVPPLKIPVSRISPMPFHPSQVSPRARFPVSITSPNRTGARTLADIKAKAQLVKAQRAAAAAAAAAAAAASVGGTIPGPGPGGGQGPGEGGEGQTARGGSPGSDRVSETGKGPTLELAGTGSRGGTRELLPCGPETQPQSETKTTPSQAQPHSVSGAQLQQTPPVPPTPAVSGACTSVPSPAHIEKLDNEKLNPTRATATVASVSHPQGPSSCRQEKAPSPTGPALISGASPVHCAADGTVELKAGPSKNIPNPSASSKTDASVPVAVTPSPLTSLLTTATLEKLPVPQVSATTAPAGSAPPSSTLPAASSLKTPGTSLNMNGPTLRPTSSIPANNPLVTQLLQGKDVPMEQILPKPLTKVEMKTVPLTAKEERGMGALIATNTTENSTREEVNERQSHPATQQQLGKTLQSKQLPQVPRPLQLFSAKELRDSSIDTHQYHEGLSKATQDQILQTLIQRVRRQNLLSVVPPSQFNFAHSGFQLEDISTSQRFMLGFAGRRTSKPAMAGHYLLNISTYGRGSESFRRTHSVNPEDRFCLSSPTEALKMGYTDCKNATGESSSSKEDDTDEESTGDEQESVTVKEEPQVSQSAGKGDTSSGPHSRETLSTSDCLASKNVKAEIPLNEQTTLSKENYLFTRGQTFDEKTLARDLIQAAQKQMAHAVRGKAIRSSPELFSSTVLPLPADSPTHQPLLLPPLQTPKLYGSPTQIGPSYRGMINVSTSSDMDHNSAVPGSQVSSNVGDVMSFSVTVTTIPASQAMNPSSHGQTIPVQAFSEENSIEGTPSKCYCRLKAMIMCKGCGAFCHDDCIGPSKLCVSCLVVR
UniProt Q7L266: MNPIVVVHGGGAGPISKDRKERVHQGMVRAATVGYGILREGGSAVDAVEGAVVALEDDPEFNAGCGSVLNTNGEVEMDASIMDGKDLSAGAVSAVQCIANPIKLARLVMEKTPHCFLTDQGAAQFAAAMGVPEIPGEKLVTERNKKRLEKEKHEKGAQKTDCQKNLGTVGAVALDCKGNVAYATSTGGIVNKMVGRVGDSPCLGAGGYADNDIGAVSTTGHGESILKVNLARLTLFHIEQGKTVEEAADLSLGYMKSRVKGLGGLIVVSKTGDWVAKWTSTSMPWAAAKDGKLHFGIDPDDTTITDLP
UniProt Q70EL1: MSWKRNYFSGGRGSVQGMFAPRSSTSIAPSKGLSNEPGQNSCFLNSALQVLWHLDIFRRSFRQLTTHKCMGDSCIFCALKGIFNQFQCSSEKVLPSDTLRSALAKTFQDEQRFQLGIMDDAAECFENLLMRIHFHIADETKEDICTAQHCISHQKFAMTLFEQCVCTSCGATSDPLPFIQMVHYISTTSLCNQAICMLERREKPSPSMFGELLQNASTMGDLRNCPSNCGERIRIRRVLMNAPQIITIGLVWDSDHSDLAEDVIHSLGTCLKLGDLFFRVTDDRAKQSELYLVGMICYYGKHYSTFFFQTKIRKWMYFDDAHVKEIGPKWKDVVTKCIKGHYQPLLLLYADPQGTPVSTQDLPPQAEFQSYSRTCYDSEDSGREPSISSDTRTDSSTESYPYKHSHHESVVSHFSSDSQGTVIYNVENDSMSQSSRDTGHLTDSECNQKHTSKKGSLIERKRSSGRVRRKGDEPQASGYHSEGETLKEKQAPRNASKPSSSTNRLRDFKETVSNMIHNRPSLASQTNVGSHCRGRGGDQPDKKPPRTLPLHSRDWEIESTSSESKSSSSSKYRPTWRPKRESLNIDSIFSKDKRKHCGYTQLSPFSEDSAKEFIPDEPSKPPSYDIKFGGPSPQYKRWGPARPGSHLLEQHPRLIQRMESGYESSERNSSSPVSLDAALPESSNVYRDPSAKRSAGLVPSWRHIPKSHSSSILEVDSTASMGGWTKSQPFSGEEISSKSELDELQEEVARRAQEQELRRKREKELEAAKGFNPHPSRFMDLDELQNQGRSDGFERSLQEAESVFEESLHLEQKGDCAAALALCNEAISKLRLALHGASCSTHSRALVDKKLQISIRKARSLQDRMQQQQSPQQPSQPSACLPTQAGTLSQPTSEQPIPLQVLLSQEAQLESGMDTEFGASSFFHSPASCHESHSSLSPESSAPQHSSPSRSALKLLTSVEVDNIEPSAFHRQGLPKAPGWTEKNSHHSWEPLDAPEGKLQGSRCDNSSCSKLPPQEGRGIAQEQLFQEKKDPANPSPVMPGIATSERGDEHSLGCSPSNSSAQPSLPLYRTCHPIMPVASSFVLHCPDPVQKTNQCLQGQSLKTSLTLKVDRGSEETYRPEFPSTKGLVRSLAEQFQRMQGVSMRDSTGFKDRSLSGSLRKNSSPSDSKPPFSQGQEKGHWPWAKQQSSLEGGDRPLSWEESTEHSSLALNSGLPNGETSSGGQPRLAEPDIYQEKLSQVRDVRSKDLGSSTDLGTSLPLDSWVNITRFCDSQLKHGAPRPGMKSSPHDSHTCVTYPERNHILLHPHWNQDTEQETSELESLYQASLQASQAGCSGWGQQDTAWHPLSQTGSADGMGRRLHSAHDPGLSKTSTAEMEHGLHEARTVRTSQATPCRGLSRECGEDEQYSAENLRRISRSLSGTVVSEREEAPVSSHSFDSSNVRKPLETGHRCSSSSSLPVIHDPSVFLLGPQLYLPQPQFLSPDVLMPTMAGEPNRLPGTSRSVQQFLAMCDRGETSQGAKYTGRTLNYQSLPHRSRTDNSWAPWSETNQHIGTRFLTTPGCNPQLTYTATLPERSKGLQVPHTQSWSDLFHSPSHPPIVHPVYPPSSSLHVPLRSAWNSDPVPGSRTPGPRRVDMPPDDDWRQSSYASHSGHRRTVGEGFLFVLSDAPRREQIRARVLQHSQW

Compound: CN[C@@H]1C[C@H]2O[C@@](C)([C@@H]1OC)n1c3ccccc3c3c4c(c5c6ccccc6n2c5c31)C(=O)NC4 [staurosporine]
Assay: log2 fold change of tryptic peptide abundance, ligand vs vehicle (limited proteolysis) (log2 ratio); higher = more trypsin-susceptible (destabilized)
Conditions: ligand concentration: 20 uM; sample: K562 cleared lysate; digestion: 4 min, 22 C (HT-PELSA RT4min, Orbitrap Astral)

Target	log2 fold change
LPCAT2 (peptide sequence: AVQPVLVSR, peptide start residue: 181) (UniProt Q7L5N7)	0.184
UniProt Q6ZN19 (peptide sequence: GSLLTVHQIVHTR, peptide start residue: 185)	-0.201
CEP128 (peptide sequence: ETLLHQVEELR, peptide start residue: 303) (UniProt Q6ZU80)	0.083
NUFIP2 (peptide sequence: NLSSDEATNPISR, peptide start residue: 110) (UniProt Q7Z417)	-0.486
VPS13B (peptide sequence: HQPSDLHADQAPNSHVK, peptide start residue: 3838) (UniProt Q7Z7G8)	0.592
GLRX5 (peptide sequence: DYAAYNVLDDPELR, peptide start residue: 84) (UniProt Q86SX6)	0.257
C11orf74 (peptide sequence: FSPAEIENIK, peptide start residue: 192) (UniProt Q86VG3)	0.105
TAX1BP1 (peptide sequence: KQLADAVAELK, peptide start residue: 403) (UniProt Q86VP1)	0.381
TBC1D9 (peptide sequence: MTFLFANLKDRDFLVQR, peptide start residue: 373) (UniProt Q6ZT07)	0.196
TEDC2 (peptide sequence: LSAVEVEAEAGR, peptide start residue: 258) (UniProt Q7L2K0)	0.712
ADAT2 (peptide sequence: IPLVVYGCQNER, peptide start residue: 119) (UniProt Q7Z6V5)	-0.179
ATG4D (peptide sequence: RPSSEDFVFL, peptide start residue: 465) (UniProt Q86TL0)	0.218
TOM1L2 (peptide sequence: KTVTYEDPQAVGGLASALDNRK, peptide start residue: 400) (UniProt Q6ZVM7)	-0.303
PABPN1 (peptide sequence: TTNYNSSRSR, peptide start residue: 270) (UniProt Q86U42)	-0.766
UniProt Q86V20 (peptide sequence: LISNGGDSAVEMDRR, peptide start residue: 404)	-0.179
WDR53 (peptide sequence: VNWLLGTK, peptide start residue: 327) (UniProt Q7Z5U6)	0.227
UniProt Q6ZR52 (peptide sequence: SSHLTTHKR, peptide start residue: 301)	-0.00984
C1orf122 (peptide sequence: PGAPPQPAVSAR, peptide start residue: 85) (UniProt Q6ZSJ8)	0.125
UniProt Q6ZWB6 (peptide sequence: GAAAAVPSGPGAHGGGGGGGAQDK, peptide start residue: 181)	-0.0942

Target	log2 fold change
SMIM29 (peptide sequence: MPLLDVKT, peptide start residue: 95) (UniProt Q86T20)	0.0481
UniProt Q7Z422 (peptide sequence: RPTSNGVVSSPNSTSR, peptide start residue: 65)	-0.948
DEF8 (peptide sequence: QAHLNPFNK, peptide start residue: 73) (UniProt Q6ZN54)	-0.199
FAM83H (peptide sequence: MPGGALEPHAGLRPLSR, peptide start residue: 362) (UniProt Q6ZRV2)	0.636
CENPV (peptide sequence: CGVQSFYTPR, peptide start residue: 219) (UniProt Q7Z7K6)	0.304
PAXIP1 (peptide sequence: LMAYLAGAK, peptide start residue: 726) (UniProt Q6ZW49)	0.28
UniProt Q6ZQW0 (peptide sequence: LSIQDITK, peptide start residue: 222)	-0.169
UniProt Q86T03 (peptide sequence: CPCNCLLICK, peptide start residue: 99)	-0.327
NEK8 (peptide sequence: SVAPSNTGSR, peptide start residue: 280) (UniProt Q86SG6)	0.151
ASXL2 (peptide sequence: DSSIDTHQYHEGLSK, peptide start residue: 1046) (UniProt Q76L83)	0.294
ASRGL1 (peptide sequence: AATVGYGILR, peptide start residue: 30) (UniProt Q7L266)	0.0354
UniProt Q6ZUT1 (peptide sequence: SDGFDEESQR, peptide start residue: 61)	-0.2
UniProt Q86VE0 (peptide sequence: RTGQEVQKR, peptide start residue: 71)	0.379
USP54 (peptide sequence: WGPARPGSHLLEQHPR, peptide start residue: 638) (UniProt Q70EL1)	-0.543
UniProt Q7Z5L2 (peptide sequence: VLEILYEFPR, peptide start residue: 213)	-0.189
UniProt Q75LS8 (peptide sequence: LAPGFDAELIVK, peptide start residue: 528)	-0.196
UniProt Q7L592 (peptide sequence: GYSFYLAHEFFDVLPVHK, peptide start residue: 208)	0.455
UniProt Q7Z6J4 (peptide sequence: RYLNSLKNK, peptide start residue: 71)	0.0671

Given with bars between the fields: entries from further up
Target | log2 fold change
SMIM29 (peptide sequence: MPLLDVKT, peptide start residue: 95) (UniProt Q86T20) | 0.0481
PAXIP1 (peptide sequence: LMAYLAGAK, peptide start residue: 726) (UniProt Q6ZW49) | 0.28
NEK8 (peptide sequence: SVAPSNTGSR, peptide start residue: 280) (UniProt Q86SG6) | 0.151
